In the supplement of paper PMC10849652:
The other results are listed elsewhere or left out.

Chains of the proteins cited; added tags and fusions are not shown. Lines headed by an entry give the natural chain unless they say otherwise; changes in a name come on top.
UniProt Q6IA86: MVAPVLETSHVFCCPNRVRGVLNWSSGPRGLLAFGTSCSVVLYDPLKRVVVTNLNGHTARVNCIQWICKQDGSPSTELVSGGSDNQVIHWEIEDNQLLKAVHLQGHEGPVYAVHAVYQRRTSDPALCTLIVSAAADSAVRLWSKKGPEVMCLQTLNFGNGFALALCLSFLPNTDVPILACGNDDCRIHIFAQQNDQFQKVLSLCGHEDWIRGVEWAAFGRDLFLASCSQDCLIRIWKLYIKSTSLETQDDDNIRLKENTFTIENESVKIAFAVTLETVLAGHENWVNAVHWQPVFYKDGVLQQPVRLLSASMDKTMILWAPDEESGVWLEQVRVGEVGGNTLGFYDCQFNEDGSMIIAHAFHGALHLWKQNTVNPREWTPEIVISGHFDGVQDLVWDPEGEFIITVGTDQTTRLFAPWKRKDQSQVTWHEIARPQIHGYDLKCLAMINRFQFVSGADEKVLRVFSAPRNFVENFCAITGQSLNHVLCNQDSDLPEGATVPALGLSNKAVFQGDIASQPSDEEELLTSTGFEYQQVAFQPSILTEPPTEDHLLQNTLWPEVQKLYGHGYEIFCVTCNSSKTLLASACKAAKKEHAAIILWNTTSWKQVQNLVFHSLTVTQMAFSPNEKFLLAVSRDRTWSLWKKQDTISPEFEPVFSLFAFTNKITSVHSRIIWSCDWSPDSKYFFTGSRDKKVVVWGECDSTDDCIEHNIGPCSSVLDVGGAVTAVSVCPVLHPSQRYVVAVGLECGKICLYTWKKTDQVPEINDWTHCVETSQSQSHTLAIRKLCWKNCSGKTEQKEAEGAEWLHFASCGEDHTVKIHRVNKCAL
UniProt Q9UHF1: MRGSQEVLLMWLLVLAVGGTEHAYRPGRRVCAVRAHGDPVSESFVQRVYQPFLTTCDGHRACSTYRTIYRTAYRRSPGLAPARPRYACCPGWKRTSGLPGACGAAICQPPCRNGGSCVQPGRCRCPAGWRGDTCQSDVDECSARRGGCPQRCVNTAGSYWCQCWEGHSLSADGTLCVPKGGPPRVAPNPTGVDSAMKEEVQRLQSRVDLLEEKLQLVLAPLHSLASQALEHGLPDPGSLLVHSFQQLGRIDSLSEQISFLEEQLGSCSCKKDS
UniProt Q92556, whole entry, looked up: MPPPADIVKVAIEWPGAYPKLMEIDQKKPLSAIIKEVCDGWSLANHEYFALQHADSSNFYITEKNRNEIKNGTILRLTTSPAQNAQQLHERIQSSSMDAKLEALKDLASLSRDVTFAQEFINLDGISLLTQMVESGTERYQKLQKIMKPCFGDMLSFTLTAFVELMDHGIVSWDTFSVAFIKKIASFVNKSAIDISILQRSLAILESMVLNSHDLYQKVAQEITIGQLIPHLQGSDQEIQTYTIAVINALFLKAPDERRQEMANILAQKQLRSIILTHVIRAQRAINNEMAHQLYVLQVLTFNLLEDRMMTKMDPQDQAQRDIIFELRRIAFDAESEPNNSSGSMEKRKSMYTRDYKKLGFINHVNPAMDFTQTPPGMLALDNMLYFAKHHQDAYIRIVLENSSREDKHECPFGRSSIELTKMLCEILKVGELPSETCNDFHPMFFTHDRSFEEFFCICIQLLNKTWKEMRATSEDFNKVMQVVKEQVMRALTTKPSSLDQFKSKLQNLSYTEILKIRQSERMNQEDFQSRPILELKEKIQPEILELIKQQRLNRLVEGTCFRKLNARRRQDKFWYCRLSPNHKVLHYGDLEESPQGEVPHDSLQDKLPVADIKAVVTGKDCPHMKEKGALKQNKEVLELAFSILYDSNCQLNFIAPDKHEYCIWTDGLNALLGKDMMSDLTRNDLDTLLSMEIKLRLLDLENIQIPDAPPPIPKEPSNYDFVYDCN
UniProt O75356: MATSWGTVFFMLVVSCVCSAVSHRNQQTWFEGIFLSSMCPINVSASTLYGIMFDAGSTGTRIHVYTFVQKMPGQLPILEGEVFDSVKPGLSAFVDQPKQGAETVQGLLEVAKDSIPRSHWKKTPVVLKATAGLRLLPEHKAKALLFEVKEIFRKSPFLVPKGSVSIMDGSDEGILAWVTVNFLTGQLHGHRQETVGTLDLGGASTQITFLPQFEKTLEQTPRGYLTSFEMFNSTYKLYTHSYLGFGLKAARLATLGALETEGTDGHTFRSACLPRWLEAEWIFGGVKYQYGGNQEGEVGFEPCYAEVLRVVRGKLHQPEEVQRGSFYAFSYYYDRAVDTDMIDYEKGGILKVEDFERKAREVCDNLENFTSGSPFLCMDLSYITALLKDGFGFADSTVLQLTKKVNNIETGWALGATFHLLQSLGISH
UniProt Q9H5J4: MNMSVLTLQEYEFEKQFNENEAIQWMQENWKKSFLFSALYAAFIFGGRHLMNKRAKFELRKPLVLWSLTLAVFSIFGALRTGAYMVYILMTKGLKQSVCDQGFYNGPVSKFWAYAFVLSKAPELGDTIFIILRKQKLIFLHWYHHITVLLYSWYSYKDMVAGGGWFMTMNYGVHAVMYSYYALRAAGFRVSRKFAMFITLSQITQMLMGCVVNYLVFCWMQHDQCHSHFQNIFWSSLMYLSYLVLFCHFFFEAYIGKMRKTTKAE
UniProt Q9H9B1: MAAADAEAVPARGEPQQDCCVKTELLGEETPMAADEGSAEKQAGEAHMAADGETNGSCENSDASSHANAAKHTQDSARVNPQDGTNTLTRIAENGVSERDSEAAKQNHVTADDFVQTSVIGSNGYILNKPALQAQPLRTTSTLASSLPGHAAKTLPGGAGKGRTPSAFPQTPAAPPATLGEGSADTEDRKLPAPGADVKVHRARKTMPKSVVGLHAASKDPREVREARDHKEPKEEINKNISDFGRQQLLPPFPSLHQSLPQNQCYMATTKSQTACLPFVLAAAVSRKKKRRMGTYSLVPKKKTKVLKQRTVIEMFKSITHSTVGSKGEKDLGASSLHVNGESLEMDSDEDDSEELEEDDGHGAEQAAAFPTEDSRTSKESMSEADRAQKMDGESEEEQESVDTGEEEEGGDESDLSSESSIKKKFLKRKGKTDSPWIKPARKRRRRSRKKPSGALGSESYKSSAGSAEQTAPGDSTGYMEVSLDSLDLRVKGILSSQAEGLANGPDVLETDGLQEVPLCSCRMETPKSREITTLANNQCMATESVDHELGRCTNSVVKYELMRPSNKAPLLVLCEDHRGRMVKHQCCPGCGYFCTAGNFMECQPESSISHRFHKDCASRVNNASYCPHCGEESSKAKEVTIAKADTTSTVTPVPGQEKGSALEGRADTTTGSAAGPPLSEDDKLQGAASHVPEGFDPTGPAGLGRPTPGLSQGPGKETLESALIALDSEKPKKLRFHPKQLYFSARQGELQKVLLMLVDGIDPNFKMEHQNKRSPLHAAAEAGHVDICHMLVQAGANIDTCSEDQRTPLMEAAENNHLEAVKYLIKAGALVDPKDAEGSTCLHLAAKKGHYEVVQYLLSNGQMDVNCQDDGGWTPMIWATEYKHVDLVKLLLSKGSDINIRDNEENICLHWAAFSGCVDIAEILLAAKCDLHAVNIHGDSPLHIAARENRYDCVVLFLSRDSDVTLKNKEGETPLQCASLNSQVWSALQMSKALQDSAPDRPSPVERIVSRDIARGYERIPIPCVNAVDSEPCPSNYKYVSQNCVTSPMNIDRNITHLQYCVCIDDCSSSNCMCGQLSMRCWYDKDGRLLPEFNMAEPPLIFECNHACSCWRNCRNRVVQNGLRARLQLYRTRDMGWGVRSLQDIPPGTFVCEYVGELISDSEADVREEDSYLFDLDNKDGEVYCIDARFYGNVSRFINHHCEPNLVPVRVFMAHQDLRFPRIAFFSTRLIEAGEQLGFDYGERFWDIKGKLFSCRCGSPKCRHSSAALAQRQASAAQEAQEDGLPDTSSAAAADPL
UniProt Q7L5Y1: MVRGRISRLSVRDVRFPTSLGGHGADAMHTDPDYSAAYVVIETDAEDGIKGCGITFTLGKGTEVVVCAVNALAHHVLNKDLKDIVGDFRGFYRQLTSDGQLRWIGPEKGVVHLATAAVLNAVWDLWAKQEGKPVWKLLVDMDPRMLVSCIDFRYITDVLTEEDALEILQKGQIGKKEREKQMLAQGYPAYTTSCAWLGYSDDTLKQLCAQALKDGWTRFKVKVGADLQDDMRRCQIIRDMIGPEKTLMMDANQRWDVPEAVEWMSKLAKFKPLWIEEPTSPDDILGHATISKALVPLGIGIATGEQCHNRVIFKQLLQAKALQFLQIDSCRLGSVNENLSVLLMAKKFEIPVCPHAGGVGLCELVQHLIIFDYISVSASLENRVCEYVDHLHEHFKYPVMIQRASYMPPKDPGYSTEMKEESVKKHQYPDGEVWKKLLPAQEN
UniProt O43432, whole entry, looked up: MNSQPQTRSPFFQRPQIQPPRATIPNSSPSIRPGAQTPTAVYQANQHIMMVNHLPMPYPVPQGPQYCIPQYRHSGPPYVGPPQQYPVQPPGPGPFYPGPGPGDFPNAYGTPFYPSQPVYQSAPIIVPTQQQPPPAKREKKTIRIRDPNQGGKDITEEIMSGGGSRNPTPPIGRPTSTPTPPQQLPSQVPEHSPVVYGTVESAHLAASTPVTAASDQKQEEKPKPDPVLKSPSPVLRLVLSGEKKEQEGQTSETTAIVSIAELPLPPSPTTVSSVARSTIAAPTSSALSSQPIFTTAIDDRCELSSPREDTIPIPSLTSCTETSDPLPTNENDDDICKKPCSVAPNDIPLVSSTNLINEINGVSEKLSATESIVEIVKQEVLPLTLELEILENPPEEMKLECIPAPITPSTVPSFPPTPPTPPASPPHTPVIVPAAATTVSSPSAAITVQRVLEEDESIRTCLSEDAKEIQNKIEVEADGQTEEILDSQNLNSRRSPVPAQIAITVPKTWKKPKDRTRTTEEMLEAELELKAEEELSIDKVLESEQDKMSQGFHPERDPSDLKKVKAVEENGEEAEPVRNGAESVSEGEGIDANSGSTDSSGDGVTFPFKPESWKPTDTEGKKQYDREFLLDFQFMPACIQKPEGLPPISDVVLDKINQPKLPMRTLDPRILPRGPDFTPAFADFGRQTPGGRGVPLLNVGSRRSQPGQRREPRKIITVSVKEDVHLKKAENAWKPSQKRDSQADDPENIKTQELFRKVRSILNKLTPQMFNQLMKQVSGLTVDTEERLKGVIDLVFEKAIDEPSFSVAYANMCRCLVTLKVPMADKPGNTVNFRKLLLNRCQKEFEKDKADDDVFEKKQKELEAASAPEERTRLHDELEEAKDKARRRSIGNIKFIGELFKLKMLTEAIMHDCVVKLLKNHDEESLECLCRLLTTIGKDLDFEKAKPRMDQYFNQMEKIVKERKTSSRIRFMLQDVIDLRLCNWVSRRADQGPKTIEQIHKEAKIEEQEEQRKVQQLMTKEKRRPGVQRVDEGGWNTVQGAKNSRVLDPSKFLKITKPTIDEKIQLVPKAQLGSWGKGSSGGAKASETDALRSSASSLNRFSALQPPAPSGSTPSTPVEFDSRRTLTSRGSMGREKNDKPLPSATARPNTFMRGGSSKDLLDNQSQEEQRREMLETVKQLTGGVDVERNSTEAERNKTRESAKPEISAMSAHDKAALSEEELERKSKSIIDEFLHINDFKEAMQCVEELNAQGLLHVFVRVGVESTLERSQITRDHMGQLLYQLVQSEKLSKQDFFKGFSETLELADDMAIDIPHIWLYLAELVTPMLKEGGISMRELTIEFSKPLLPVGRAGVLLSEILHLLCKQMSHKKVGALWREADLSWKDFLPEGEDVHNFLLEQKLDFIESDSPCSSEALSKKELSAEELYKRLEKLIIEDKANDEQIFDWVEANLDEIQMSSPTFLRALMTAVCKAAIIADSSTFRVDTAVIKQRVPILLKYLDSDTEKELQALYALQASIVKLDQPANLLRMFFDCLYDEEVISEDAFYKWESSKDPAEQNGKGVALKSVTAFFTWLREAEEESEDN
UniProt P54852: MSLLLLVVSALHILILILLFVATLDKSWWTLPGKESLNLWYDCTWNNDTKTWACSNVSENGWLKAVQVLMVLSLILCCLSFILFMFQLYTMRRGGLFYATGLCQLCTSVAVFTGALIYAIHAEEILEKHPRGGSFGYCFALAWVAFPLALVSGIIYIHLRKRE
UniProt Q9H4M9: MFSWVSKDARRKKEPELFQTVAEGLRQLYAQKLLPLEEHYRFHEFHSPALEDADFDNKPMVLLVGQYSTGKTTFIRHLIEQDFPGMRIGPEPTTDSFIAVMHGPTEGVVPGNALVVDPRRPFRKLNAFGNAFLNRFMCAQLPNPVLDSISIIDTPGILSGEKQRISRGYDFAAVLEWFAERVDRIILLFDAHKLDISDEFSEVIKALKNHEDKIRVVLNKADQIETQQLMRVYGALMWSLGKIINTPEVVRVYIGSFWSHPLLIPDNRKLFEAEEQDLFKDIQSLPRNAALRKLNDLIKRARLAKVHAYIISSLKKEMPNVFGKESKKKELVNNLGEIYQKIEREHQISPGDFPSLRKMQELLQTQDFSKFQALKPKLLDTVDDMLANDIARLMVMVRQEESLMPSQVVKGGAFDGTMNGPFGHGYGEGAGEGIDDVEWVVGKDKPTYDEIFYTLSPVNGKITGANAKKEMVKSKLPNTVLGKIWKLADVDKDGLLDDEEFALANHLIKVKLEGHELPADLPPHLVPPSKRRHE

What was measured:
Assay in all cases: log2 fold change, soluble protein after heating vs DMSO (PISA); higher = thermal stabilisation; K562 cells, 10 uM, 30 min; active = over 0.2 and 3.5 SD of the protein, either way, in both replicates (recomputed)
[1] = compound: NC(=O)Nc1cc(-c2cccc(F)c2)sc1C(=O)N[C@H]1CCCNC1
Method in brief: (§1)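 Values are thermal stability changes relative to control samples and are taken from duplicates. They are stated as log2 fold changes. Before quantification by TMTpro 16plex LC-MS/MS with equalised channel sums, K562 cells at 2×10^6 cells/mL were treated with 10 μM compound for 30 min, heated in aliquots for 3 min across 48°C-58°C, pooled, extracted in PBS with 0.5% NP-40 at 4°C, and centrifuged at 21,000xg for 90 min to give the soluble supernatant.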

[2] = compound: NC(=O)c1cnc(N[C@@H]2CCCC[C@@H]2N)nc1Nc1cccc(-n2nccn2)c1
Method in brief: as §1

[3] = compound: NC1(c2ccc(-c3nc4ccn5c(=O)[nH]nc5c4cc3-c3ccccc3)cc2)CCC1
Method in brief: as §1

[4] = compound: NCC(=O)Nc1ccc(-n2nc(C(F)(F)F)cc2-c2ccc3c(ccc4ccccc43)c2)cc1
Method in brief: as §1

entinostat = compound: Nc1ccccc1NC(=O)c1ccc(CNC(=O)OCc2cccnc2)cc1 [entinostat]
Method in brief: as §1

vorinostat = compound: O=C(CCCCCCC(=O)Nc1ccccc1)NO [vorinostat]
Method in brief: as §1

citarinostat = compound: O=C(CCCCCCNC(=O)c1cnc(N(c2ccccc2)c2ccccc2Cl)nc1)NO [citarinostat]
Method in brief: as §1

silmitasertib = compound: O=C(O)c1ccc2c(c1)nc(Nc1cccc(Cl)c1)c1ccncc12 [silmitasertib]
Method in brief: as §1

[5] = compound: O=C1NC(=O)C(c2cnc3ccccn23)=C1c1cn2c3c(cc(F)cc13)CN(C(=O)N1CCCCC1)CC2
Method in brief: as §1

[6] = compound: c1cc(OCCN2CCCCC2)cc(-c2n[nH]c3ccc(-c4nnc[nH]4)cc23)c1
Method in brief: as §1

Target	log2 fold change [1]	log2 fold change [2]	log2 fold change [3]	log2 fold change [4]	log2 fold change (entinostat)	log2 fold change (vorinostat)	log2 fold change (citarinostat)	log2 fold change (silmitasertib)	log2 fold change [5]	log2 fold change [6]
ELP2 isoform 6 (UniProt Q6IA86)	inactive: -0.044	inactive: -0.038	inactive: -0.049	inactive: -0.029	inactive: 0.015	inactive: 0	inactive: 0.02	inactive: 0.02	inactive: -0.075	inactive: -0.036
EIF2B3 (UniProt Q9NR50)	inactive: 0.008	inactive: -0.026	inactive: 0.011	inactive: 0.013	inactive: -0.001	inactive: 0.011	inactive: 0.054	inactive: 0.106	inactive: 0.083	inactive: -0.082
EHMT2 (UniProt Q96KQ7)	inactive: -0.023	inactive: -0.098	inactive: -0.087	inactive: -0.004	inactive: -0.044	inactive: 0.07	inactive: -0.101	inactive: 0.001	inactive: 0.091	inactive: -0.072
EHD2 (UniProt Q9NZN4)	inactive: -0.034	inactive: -0.048	inactive: -0.072	inactive: -0.096	inactive: 0.033	inactive: 0.055	inactive: 0.048	inactive: 0.012	inactive: -0.04	inactive: -0.015
EMG1 (UniProt Q92979)	inactive: 0.035	inactive: 0.021	inactive: 0.08	inactive: 0.045	inactive: 0.003	inactive: -0.024	inactive: -0.013	inactive: 0.05	inactive: 0.067	inactive: -0.062
EEFSEC (UniProt P57772)	inactive: 0.08	inactive: -0.073	inactive: -0.126	inactive: -0.025	inactive: 0.049	inactive: 0.116	inactive: -0.024	inactive: 0.045	inactive: 0.051	inactive: -0.17
EIF2B1 (UniProt Q14232)	inactive: 0.005	inactive: -0.022	inactive: 0.024	inactive: 0.028	inactive: -0.005	inactive: 0.012	inactive: 0.046	inactive: -0.048	inactive: -0.015	inactive: -0.024
EGFL7 (UniProt Q9UHF1)	inactive: -0.002	inactive: 0.028	–	–	inactive: -0.017	inactive: -0.031	–	–	inactive: 0.126	–
ENO1 (UniProt P06733)	inactive: -0.017	inactive: 0.017	inactive: 0.092	inactive: 0.011	inactive: -0.034	inactive: -0.036	inactive: -0.017	inactive: -0.024	inactive: -0.035	inactive: 0.011
ELMO1 (UniProt Q92556)	inactive: -0.07	–	inactive: -0.146	inactive: -0.316	inactive: 0.093	–	–	inactive: 0.04	inactive: -0.104	–
ENTPD5 (UniProt O75356)	inactive: -0.063	inactive: 0.06	inactive: -0.022	inactive: 0.118	inactive: -0.015	–	inactive: 0.029	inactive: 0.022	inactive: 0.024	inactive: 0.013
EIF4E2 (UniProt O60573)	inactive: 0.054	inactive: -0.015	inactive: 0.085	inactive: -0.048	inactive: 0.075	–	inactive: 0.245	inactive: 0.019	inactive: 0.003	inactive: 0.079
EIF3J isoform 2 (UniProt O75822)	inactive: -0.094	inactive: -0.197	inactive: -0.102	inactive: 0.023	inactive: -0.041	–	–	inactive: -0.11	inactive: 0.002	–
ELOVL6 (UniProt Q9H5J4)	inactive: 0.116	–	inactive: -0.058	inactive: -0.137	inactive: 0.126	–	inactive: 0.017	inactive: 0.132	–	inactive: -0.146
EMC1 (UniProt Q8N766)	inactive: 0.012	inactive: -0.002	inactive: -0.094	inactive: 0.01	inactive: 0.009	inactive: -0.009	inactive: 0.056	inactive: 0.032	inactive: 0.03	inactive: -0.035
EEF1A1 (UniProt P68104)	inactive: -0.046	inactive: 0.084	inactive: 0.091	inactive: 0.191	inactive: -0.017	–	inactive: -0.04	inactive: -0.11	inactive: 0.023	inactive: 0.07
EFR3A (UniProt Q14156)	inactive: -0.175	–	inactive: 0.012	inactive: -0.15	inactive: 0.039	–	–	inactive: -0.028	inactive: 0.039	–
ELL (UniProt P55199)	inactive: 0.006	inactive: -0.244	–	–	inactive: -0.006	inactive: -0.034	inactive: 0.049	–	inactive: -0.049	inactive: 0.046
EP400 (UniProt Q96L91)	inactive: 0.009	–	inactive: 0.242	–	inactive: 0.07	inactive: 0.254	–	inactive: 0.115	–	–
EIF2AK1 (UniProt Q9BQI3)	inactive: -0.034	inactive: 0.018	inactive: -0.023	inactive: 0.001	inactive: 0.129	inactive: -0.058	–	inactive: 0	inactive: 0.133	–

Not a retest: an excerpt of the list.
Target	log2 fold change [1]	log2 fold change [2]	log2 fold change [3]	log2 fold change [4]	log2 fold change (entinostat)	log2 fold change (vorinostat)	log2 fold change (citarinostat)	log2 fold change (silmitasertib)	log2 fold change [5]	log2 fold change [6]
ELMO1 (UniProt Q92556)	inactive: -0.07	–	inactive: -0.146	inactive: -0.316	inactive: 0.093	–	–	inactive: 0.04	inactive: -0.104	–
ENTPD5 (UniProt O75356)	inactive: -0.063	inactive: 0.06	inactive: -0.022	inactive: 0.118	inactive: -0.015	–	inactive: 0.029	inactive: 0.022	inactive: 0.024	inactive: 0.013
EIF4E2 (UniProt O60573)	inactive: 0.054	inactive: -0.015	inactive: 0.085	inactive: -0.048	inactive: 0.075	–	inactive: 0.245	inactive: 0.019	inactive: 0.003	inactive: 0.079
EIF3J isoform 2 (UniProt O75822)	inactive: -0.094	inactive: -0.197	inactive: -0.102	inactive: 0.023	inactive: -0.041	–	–	inactive: -0.11	inactive: 0.002	–
ELOVL6 (UniProt Q9H5J4)	inactive: 0.116	–	inactive: -0.058	inactive: -0.137	inactive: 0.126	–	inactive: 0.017	inactive: 0.132	–	inactive: -0.146
EMC1 (UniProt Q8N766)	inactive: 0.012	inactive: -0.002	inactive: -0.094	inactive: 0.01	inactive: 0.009	inactive: -0.009	inactive: 0.056	inactive: 0.032	inactive: 0.03	inactive: -0.035
EEF1A1 (UniProt P68104)	inactive: -0.046	inactive: 0.084	inactive: 0.091	inactive: 0.191	inactive: -0.017	–	inactive: -0.04	inactive: -0.11	inactive: 0.023	inactive: 0.07
EFR3A (UniProt Q14156)	inactive: -0.175	–	inactive: 0.012	inactive: -0.15	inactive: 0.039	–	–	inactive: -0.028	inactive: 0.039	–
ELL (UniProt P55199)	inactive: 0.006	inactive: -0.244	–	–	inactive: -0.006	inactive: -0.034	inactive: 0.049	–	inactive: -0.049	inactive: 0.046

(cont.)

Target	log2 fold change [1]	log2 fold change [2]	log2 fold change [3]	log2 fold change [4]	log2 fold change (entinostat)	log2 fold change (vorinostat)	log2 fold change (citarinostat)	log2 fold change (silmitasertib)	log2 fold change [5]	log2 fold change [6]
EGR1 (UniProt P18146)	inactive: -0.029	inactive: -0.346	inactive: 0.345	inactive: 0.066	inactive: 0.091	inactive: -0.033	–	inactive: 0.085	inactive: -0.109	–
ENTPD6 (UniProt O75354)	inactive: -0.212	inactive: 0.014	inactive: -0.071	–	inactive: -0.075	inactive: -0.001	inactive: 0.209	inactive: -0.012	inactive: 0.222	inactive: 0.08
EHMT1 (UniProt Q9H9B1)	inactive: 0.057	inactive: -0.09	inactive: -0.311	inactive: -0.017	inactive: 0.059	inactive: -0.122	–	inactive: 0.092	inactive: -0.043	–
ENOSF1 (UniProt Q7L5Y1)	inactive: -0.043	inactive: 0.051	inactive: -0.15	inactive: -0.031	inactive: -0.036	inactive: -0.014	inactive: -0.088	inactive: 0.003	inactive: -0.038	inactive: -0.062
ELAVL1 isoform 2 (UniProt Q15717)	inactive: 0	inactive: 0.024	inactive: 0.323	inactive: 0.044	inactive: 0.03	inactive: 0.02	inactive: -0.101	inactive: 0.274	inactive: 0.253	inactive: -0.099
ELAC1 (UniProt Q9H777)	inactive: 0.014	inactive: 0.053	–	inactive: -0.082	inactive: -0.202	inactive: 0.285	inactive: 0.05	–	inactive: 0.075	inactive: -0.05
EEF1AKNMT (UniProt Q8N6R0)	inactive: -0.025	inactive: -0.061	inactive: -0.109	inactive: -0.017	inactive: 0.038	inactive: 0.161	inactive: -0.002	inactive: 0.059	inactive: 0.055	inactive: 0.031
EIF4G3 isoform 3 (UniProt O43432)	inactive: 0.012	inactive: -0.092	inactive: -0.062	inactive: -0.016	inactive: 0.01	–	inactive: -0.114	inactive: 0.146	–	active: -0.515
EIF3F (UniProt O00303)	inactive: 0.127	inactive: 0.012	inactive: -0.063	inactive: -0.049	inactive: 0.034	inactive: 0.028	inactive: 0.04	inactive: 0.058	inactive: 0.086	inactive: -0.021
EIF3M (UniProt Q7L2H7)	inactive: -0.04	inactive: -0.011	inactive: -0.137	inactive: 0.027	inactive: 0.086	inactive: 0.069	inactive: 0.078	inactive: 0.104	inactive: 0.006	inactive: -0.092
EPB41, A0A2R8Y6D0	inactive: -0.082	inactive: -0.083	inactive: 0.059	inactive: 0.057	inactive: 0.103	inactive: -0.114	inactive: -0.078	inactive: 0.165	–	inactive: -0.081
EFEMP1 (UniProt Q12805)	inactive: -0.186	inactive: -0.057	–	–	inactive: 0.052	inactive: 0.245	–	–	–	–
EML3 (UniProt Q32P44)	inactive: 0.006	inactive: 0.041	inactive: 0.118	–	inactive: 0.018	inactive: -0.018	inactive: 0.12	inactive: 0.055	inactive: 0.002	inactive: -0.19
EIF2D (UniProt P41214)	inactive: -0.151	inactive: -0.199	inactive: -0.153	inactive: -0.103	inactive: 0.095	inactive: 0.147	inactive: 0.07	inactive: 0.023	inactive: 0.138	inactive: -0.047
ELOB (UniProt Q15370)	inactive: -0.022	inactive: -0.116	inactive: -0.033	inactive: -0.065	inactive: 0.035	inactive: 0.016	inactive: 0.001	inactive: -0.014	inactive: -0.106	inactive: -0.033
EMP3 (UniProt P54852)	inactive: -0.14	inactive: -0.013	inactive: -0.104	inactive: 0.068	inactive: 0.009	–	inactive: 0.029	inactive: 0.153	inactive: 0.055	inactive: -0.289
EHD1 (UniProt Q9H4M9)	inactive: -0.012	inactive: -0.005	inactive: -0.113	inactive: -0.011	inactive: 0.018	inactive: 0.046	inactive: 0.009	inactive: -0.033	inactive: -0.056	inactive: -0.012
ELF1 (UniProt P32519)	inactive: -0.124	inactive: -0.044	–	–	inactive: -0.11	–	inactive: -0.089	–	inactive: -0.075	inactive: -0.18
EPB41 (UniProt P11171)	inactive: -0.169	inactive: 0.028	inactive: -0.036	inactive: -0.049	inactive: -0.03	inactive: 0	inactive: 0	inactive: 0.028	inactive: -0.039	inactive: -0.098
EIF3G (UniProt K7ER90)	inactive: -0.005	inactive: -0.003	inactive: -0.19	inactive: -0.101	inactive: 0.12	–	–	inactive: 0.087	inactive: 0.025	–
